Measurements taken from paper PMC12480759.
Results are given in words; binding and its absence hold for the method and conditions named. In cells and extracts the contact can be indirect. Binding can be weak; no strength is given.

The chains behind the UniProt entries cited, without tags or fusion partners. Where a name states a change or a piece, a line headed by the entry shows the natural chain unless it says otherwise.
UniProt Q13568: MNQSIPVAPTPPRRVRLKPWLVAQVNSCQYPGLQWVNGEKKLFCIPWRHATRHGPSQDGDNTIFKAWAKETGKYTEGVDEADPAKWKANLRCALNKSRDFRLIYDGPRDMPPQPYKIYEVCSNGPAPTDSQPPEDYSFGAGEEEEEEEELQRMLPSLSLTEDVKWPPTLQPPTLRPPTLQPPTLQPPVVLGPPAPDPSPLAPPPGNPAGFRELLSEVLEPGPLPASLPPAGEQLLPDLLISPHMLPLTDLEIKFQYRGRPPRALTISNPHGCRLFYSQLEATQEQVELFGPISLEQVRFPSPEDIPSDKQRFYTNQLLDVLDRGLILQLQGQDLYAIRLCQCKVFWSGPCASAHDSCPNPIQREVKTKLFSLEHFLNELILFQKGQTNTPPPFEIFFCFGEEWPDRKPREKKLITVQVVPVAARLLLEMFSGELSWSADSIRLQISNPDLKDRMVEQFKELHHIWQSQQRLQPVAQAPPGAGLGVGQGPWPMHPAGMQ
UniProt Q99988: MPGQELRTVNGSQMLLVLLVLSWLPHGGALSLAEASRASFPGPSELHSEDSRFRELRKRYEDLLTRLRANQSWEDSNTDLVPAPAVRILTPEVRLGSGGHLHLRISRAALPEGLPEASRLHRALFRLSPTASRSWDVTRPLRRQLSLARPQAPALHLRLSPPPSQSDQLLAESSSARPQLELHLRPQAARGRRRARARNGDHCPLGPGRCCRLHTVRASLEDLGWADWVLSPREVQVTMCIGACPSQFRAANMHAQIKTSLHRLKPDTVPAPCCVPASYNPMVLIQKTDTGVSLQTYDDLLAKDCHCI

Target: Interferon regulatory factor 5 (human (in HNSCC cells)) (UniProt Q13568)
Assay: co-IP; coimmunoprecipitation in HNSCC cells; bait and antibody not stated in the text shown (methods in the Supplementary Materials)

## Growth differentiation factor 15 (from UniProt Q99988)
  binding: binds
